Results are given in words; binding and its absence hold for the method and conditions named. Binding seen in cells or lysates may run through a third protein. Some entries that bind do so weakly or less than the wild type. One block for each molecule: values may come before it.
Assays:
Assay in all cases: co-IP; endogenous proteins in P7 mouse GPS muscle extracts (20 mM HEPES-NaOH pH 8.0, 150 mM NaCl, 1 mM EDTA, 1.5 mM MgCl2, 0.5% Triton X-100, 10% glycerol; sonicated, Benzonase-treated); anti-Vgll2, anti-TEAD1 or anti-TEAD4 antibody on Dynabeads, 1 h at 4 °C, washed 3 times in PBS; Western blot; controls: Vgll2 -/- extracts and beads without antibody
[1] = target: T1, Vestigial-like 2 (Vgll2) (mouse (endogenous in P7 GPS muscle)) (UniProt Q8BGW8)
T1 sequence: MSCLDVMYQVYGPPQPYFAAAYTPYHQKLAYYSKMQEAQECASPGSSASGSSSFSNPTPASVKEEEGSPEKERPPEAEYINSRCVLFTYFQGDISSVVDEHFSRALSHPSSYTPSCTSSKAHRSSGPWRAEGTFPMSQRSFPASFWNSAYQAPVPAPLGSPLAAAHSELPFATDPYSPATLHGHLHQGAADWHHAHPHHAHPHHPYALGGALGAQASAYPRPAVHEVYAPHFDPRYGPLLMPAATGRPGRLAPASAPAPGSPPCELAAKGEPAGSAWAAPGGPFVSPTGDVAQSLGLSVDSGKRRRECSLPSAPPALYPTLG

By UniProt entry, the sequences of proteins in these tests, tags left out.
UniProt Q62296: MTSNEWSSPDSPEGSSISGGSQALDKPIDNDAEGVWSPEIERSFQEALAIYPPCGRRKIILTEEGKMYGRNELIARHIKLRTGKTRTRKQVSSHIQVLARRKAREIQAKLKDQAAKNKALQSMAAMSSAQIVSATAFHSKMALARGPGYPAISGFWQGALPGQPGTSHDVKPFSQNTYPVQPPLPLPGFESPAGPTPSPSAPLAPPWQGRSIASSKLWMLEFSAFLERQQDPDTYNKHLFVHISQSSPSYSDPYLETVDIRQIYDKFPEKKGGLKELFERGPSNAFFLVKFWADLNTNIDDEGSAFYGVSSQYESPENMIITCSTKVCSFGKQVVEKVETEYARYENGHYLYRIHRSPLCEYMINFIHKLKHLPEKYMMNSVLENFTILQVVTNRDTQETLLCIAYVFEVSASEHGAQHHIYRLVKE
UniProt P30051: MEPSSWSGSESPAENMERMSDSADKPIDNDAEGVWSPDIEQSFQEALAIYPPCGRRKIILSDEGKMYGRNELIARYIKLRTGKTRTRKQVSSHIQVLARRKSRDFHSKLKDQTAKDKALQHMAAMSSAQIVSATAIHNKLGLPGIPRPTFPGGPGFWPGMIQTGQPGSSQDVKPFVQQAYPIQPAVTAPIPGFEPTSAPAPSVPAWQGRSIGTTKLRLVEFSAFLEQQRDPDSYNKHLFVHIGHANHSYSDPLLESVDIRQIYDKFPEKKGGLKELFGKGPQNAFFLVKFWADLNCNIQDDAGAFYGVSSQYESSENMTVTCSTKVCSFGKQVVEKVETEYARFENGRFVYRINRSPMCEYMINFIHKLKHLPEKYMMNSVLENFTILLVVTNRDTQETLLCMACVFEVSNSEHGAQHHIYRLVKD

[2] = target: TEA domain transcription factor 4 (TEAD4) (mouse (endogenous in P7 GPS muscle)) (UniProt Q62296)
[3] = target: TEA domain transcription factor 1 (TEAD1) (mouse (endogenous in P7 GPS muscle)) (UniProt P30051)

binding [1]: binds
Molecule: TEA domain transcription factor 1 (TEAD1) (from UniProt P30051 1-426)

binding [1]: binds
Molecule: TEA domain transcription factor 4 (TEAD4) (from UniProt Q62296 1-427)

binding [2]: binds | binding [3]: binds
B1: Vestigial-like 2 (Vgll2) (protein, UniProt Q8BGW8 1-322)
chain: T1 sequence
